Reference: PubChem BioAssay AID493014 (National Center for Advancing Translational Sciences (NCATS), 2011)
The other results are listed elsewhere or left out. Further columns of the screen follow, without active or inactive calls. Most of these compounds were active or inconclusive in the main read-out, so they are no random draw. The note in brackets gives the kind of curve behind each potency; many fits are weak.

Experiment: qHTS Assay to Find Inhibitors of Chronic Active B-Cell Receptor Signaling
Details: ABC-DLBCL IkBa-CBG/CBR reporter, luminescence ratio (green luciferase fused to IkBa over red control in TMD8 lymphoma cells), 4 h
Procedure, shortened: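 TMD8 human ABC-DLBCL cells with doxycycline-inducible IκBα–green luciferase fusion and unfused red luciferase, in 0.5% FBS medium; compounds up to 46 uM, 4 h at 37C. Green/red luminescence ratio, filter-overlap corrected, fitted to concentration-response curves.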

[1] = measured here: CBR red luminescence, cell number
[2] = measured here: IkBa-CBG green luminescence

SMILES	AC50 [1]	AC50 [2]
Cc1cc(NC(=O)CSc2nnc(-c3ccc(O)cc3)o2)no1	3.98 µM [falling, partial curve, poor fit]	–
CCOc1ccc(S(=O)(=O)NCC2CCCO2)cc1NC(=O)c1ccccc1F (stereo not drawn)	14.1 µM [rising, single point]	–
Cc1ccccc1C(=O)Nc1cc(S(=O)(=O)N2CCOCC2)ccc1N1CCN(C)CC1	29.1 µM [rising, single point]	–
COc1ccc(CC(=O)Nc2ccc(-c3nc4ccccc4s3)c(C)c2)cc1OC	3.16 µM [rising, partial curve, poor fit]	–
CCOc1ccc(S(=O)(=O)Nc2ccc(S(=O)(=O)Nc3cc(OC)ccc3OC)cc2)cc1	0.146 µM [falling, full curve, poor fit]	–
COc1ccccc1N1CCN(C(=O)c2ccc(S(=O)(=O)N3CCCCCC3)cc2)CC1	6.51 µM [rising, single point]	–
COc1ccc(C(=O)CN2C(=O)NC3(CCc4ccccc43)C2=O)c(OC)c1 (stereo not drawn)	20.6 µM [rising, single point]	–
O=C(Nc1ccc([N+](=O)[O-])cc1)Nc1ccc(OC(F)F)c(Cl)c1	2.59 µM [rising, partial curve, poor fit]	–
CC(=O)NC(CC(=O)OCC(=O)c1c(N)n(C)c(=O)n(C)c1=O)c1ccccc1 (stereo not drawn)	–	11.2 µM [rising, partial curve, poor fit]
O=C(Nc1ccc(F)cc1)Nc1sccc1-c1nc2ccccc2s1	35.5 µM [rising, partial curve, poor fit]	–
CSc1ccc(C2Nc3cccc4cccc(c34)N2)cc1	7.94 µM [falling, partial curve, poor fit]	–
CCOc1ccc(NC(=O)CN(C)C(=O)c2ccc(N3CCCC3)c([N+](=O)[O-])c2)cc1OCC	18.4 µM [rising, partial curve, poor fit]	–
Cc1ccc(-c2nc3ncccc3o2)cc1NC(=O)c1cccs1	11.2 µM [falling, partial curve, poor fit]	–
Cc1cc(C2N=C(N)Nc3nc4ccccc4n32)c(C)n1-c1ccccc1Cl (stereo not drawn)	22.4 µM [falling, single point]	–
O=C(NCC1CCCO1)C(=O)N/N=C/c1ccccc1C(=O)O (stereo not drawn)	10 µM [falling, partial curve]	–
CCOC(=O)c1sc(NC(=O)c2cc(-c3ccccc3C)nc3ccccc23)c(C#N)c1C	16.4 µM [falling, partial curve]	–
CCOC(=O)N1CCN(C(=O)C2c3cc(OC)c(OC)cc3C(=O)N3CCc4ccccc4C23)CC1 (stereo not drawn)	2.59 µM [falling, partial curve, poor fit]	–
CCOC(=O)c1ccc2c(c1)NCc1cccc(OC)c1O2	6.31 µM [falling, partial curve, poor fit]	–
C/C(CC(=O)Nc1cc(C)ccn1)=N\NC(=O)C(=O)Nc1cccc(C)c1	16.4 µM [falling, partial curve]	–
O=C1NC2=C(C(=O)CCC2)C(c2ccc3ncccc3c2)N1 (stereo not drawn)	14.6 µM [rising, partial curve, poor fit]	–
CCOn1c(=O)c(-c2cccs2)[n+]([O-])c2ccccc21	9.2 µM [falling, partial curve, poor fit]	–
O=C(O)CCCNc1cc(N2CCN(C(=O)c3ccco3)CC2)c2noc3c2c1C(=O)c1ccccc1-3	10 µM [falling, partial curve, poor fit]	12.6 µM [rising, partial curve, poor fit]
O=C(Nc1ccccc1)C1=C(c2ccccc2)S(=O)(=O)CCS1(=O)=O	2.82 µM [falling, full curve]	–
Cc1ccc(S(=O)(=O)N2CCC(C(=O)N[C@@H](C)C(=O)Nc3ccc(F)cc3)CC2)cc1	3.16 µM [falling, full curve, poor fit]	–
O=C(CSc1nc(-c2ccccc2)c(-c2ccccc2)[nH]1)NCCN1C(=O)CSC1=O	35.5 µM [rising, single point]	20 µM [falling, single point]
Cc1nn2c(N)c(C#N)cnc2c1-c1ccccc1	20.6 µM [rising, single point]	–
Cc1cc(C)nc(N/N=C/c2ccco2)n1	13 µM [falling, partial curve, poor fit]	–
O=C(Oc1ccc(/C=N/NC(=O)c2ccccc2O)cc1)c1ccccc1	1.64 µM [falling, full curve]	–
COc1cccc(NC(=O)c2ccc(S(=O)(=O)NCc3cccnc3)cc2)c1	35.5 µM [falling, single point]	–
CCCn1c(CN2CCN(C(=O)OCC)CC2)nc2cc(NC(=O)CC)ccc21	12.6 µM [rising, single point]	22.4 µM [falling, single point]

Complete entries, looked up by structure:
Cc1cc(C2N=C(N)Nc3nc4ccccc4n32)c(C)n1-c1ccccc1Cl (stereo not drawn) reads AC50 [1]: 22.4 µM [falling, single point]
CCOn1c(=O)c(-c2cccs2)[n+]([O-])c2ccccc21 reads AC50 [1]: 9.2 µM [falling, partial curve, poor fit]
